The other results are listed elsewhere or left out.
Assays:
Experiment in all cases: log2 fold change, soluble protein after heating vs DMSO (PISA); higher = thermal stabilisation; K562 lysate, 10 uM; active = over 0.2 and 3.5 SD of the protein, either way, in both replicates (recomputed)
[1] = compound: C#Cc1cccc(Nc2ncnc3cc(OCCOC)c(OCCOC)cc23)c1 [erlotinib]
In short: (§1)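 Soluble protein was defined as the supernatant remaining after 21,000xg for 90 min, following pooling of heated aliquots and adjustment to 0.5% NP-40 at 4°C. Before that, crude K562 extract at 1 mg/mL protein in PBS pH 7.4 with 1 mM MgCl2 was treated with 10 μM compound for 30 min and heated for 3 min across 48°C-58°C. Quantification used TMTpro 16plex LC-MS/MS with channel sums equalised, and values are log-two fold changes in thermal stability relative to solvent controls from duplicates.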

Protein sequences, listed by entry. Tags and fused reporters are not part of them. Lines headed by an entry give the natural chain unless they say otherwise; changes in a name come on top.
UniProt Q6UX04: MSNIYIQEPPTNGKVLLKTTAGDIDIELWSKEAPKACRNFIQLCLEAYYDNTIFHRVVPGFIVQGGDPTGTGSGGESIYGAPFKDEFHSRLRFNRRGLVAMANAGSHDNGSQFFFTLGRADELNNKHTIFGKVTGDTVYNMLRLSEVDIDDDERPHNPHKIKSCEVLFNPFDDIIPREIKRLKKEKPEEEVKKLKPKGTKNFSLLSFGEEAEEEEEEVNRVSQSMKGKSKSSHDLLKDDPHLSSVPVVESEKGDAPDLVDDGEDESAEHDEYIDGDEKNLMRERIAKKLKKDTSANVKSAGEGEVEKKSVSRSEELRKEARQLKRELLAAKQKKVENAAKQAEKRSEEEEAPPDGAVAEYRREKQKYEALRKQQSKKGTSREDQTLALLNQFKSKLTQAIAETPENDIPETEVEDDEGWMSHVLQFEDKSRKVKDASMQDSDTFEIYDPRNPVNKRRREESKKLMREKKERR
UniProt Q8TB03: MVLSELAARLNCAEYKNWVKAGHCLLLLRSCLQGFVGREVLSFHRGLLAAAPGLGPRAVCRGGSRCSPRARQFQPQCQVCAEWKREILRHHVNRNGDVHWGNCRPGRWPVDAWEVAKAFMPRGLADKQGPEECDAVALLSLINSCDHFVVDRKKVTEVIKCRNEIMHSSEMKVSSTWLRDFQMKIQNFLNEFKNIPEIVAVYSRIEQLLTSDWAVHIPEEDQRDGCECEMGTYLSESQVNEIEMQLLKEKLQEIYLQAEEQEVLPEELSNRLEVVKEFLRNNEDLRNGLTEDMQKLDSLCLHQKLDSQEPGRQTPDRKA
UniProt P04080: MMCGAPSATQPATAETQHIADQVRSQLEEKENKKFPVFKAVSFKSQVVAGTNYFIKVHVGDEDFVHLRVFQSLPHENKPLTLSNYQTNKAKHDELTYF
UniProt Q92793, whole entry, looked up: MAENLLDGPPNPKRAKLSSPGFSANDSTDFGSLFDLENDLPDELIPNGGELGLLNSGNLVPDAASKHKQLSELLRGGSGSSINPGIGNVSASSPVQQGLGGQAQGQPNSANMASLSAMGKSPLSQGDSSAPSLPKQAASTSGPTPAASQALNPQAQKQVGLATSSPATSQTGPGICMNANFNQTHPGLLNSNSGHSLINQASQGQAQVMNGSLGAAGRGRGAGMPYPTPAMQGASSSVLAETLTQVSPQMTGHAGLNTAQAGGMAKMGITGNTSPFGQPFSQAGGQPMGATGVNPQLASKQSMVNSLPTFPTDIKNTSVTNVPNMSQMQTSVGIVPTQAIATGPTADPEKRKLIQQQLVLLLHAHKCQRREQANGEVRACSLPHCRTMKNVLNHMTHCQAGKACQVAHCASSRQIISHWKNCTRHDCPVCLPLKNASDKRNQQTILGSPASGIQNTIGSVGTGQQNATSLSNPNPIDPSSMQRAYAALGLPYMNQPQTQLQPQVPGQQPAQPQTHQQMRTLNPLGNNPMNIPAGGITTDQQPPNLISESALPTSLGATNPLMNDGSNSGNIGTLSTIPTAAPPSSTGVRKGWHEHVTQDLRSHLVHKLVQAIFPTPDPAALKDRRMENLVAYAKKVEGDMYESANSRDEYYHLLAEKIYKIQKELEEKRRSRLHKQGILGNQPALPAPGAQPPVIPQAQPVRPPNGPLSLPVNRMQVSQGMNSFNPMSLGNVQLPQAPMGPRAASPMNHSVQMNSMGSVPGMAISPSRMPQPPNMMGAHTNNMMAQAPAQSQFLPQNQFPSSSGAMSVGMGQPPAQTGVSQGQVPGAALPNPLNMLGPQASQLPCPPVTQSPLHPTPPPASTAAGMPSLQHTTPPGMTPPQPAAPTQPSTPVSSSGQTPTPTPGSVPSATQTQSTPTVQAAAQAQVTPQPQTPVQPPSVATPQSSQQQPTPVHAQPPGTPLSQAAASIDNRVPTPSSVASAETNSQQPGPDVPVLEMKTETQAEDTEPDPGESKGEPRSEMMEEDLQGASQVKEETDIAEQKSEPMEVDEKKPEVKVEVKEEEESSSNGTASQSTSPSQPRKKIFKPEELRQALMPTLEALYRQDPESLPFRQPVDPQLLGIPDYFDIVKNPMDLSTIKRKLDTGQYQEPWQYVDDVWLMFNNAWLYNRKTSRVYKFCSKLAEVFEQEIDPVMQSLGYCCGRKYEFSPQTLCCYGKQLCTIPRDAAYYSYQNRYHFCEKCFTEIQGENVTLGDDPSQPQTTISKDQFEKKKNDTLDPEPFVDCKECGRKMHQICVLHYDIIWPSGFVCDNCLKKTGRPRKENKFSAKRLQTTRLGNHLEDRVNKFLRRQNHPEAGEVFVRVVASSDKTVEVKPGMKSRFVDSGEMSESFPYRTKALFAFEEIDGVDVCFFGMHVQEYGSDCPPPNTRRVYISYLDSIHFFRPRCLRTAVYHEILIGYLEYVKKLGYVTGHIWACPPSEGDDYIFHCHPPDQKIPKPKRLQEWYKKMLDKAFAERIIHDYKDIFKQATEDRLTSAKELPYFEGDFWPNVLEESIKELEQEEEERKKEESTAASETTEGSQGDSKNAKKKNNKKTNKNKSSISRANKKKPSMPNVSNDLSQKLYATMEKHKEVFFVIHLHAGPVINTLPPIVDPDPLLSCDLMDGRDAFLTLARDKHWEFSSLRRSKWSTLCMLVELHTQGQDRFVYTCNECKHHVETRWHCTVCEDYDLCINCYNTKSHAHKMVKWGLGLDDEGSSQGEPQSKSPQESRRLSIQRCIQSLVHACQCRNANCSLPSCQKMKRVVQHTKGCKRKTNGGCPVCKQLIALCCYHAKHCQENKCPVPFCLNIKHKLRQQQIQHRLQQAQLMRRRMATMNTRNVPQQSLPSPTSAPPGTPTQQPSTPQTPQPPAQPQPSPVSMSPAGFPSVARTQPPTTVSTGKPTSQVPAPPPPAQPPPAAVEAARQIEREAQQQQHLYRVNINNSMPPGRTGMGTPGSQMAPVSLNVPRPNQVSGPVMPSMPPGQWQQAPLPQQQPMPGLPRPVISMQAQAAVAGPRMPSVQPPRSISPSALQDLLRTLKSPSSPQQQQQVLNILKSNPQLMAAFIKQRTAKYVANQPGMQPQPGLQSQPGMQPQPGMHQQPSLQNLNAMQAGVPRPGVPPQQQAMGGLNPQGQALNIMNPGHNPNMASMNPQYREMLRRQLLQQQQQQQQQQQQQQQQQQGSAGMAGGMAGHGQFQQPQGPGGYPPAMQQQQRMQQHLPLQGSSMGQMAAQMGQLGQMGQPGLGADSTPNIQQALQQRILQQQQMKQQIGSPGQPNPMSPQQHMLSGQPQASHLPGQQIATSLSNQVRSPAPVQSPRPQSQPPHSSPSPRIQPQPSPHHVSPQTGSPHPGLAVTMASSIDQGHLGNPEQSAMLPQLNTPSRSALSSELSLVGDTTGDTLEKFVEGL
UniProt Q69YN2: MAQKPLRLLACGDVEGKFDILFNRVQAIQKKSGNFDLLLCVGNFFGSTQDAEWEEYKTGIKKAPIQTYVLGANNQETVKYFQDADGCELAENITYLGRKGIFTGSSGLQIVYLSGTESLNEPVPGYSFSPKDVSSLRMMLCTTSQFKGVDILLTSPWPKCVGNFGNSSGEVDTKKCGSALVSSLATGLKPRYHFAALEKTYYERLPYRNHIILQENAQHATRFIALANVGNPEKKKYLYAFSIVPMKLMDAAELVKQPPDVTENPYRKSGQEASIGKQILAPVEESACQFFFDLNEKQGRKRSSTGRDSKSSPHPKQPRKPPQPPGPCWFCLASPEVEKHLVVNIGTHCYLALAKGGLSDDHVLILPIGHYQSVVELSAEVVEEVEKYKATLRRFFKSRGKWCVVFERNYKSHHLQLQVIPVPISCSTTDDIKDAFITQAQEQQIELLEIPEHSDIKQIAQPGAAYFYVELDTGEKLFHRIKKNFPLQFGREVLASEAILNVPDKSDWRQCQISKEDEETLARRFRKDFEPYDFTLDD
UniProt Q8NBI2: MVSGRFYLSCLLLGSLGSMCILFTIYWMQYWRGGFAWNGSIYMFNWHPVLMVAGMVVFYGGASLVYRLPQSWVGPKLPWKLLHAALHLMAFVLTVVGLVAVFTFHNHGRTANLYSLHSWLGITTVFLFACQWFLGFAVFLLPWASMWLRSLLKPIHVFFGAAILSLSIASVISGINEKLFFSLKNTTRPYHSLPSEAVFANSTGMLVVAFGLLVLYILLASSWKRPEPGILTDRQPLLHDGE

[2] = compound: C/C(=N\NC(=O)C1=CC(=CC=C1)S(=O)(=O)N2CCOCC2)/C3=C(C=CC(=C3)Cl)O
In short: as §1

[3] = compound: C1=CC(=CC=C1C2=NC3=C(N2)C=C(C=C3)C(=O)N)OC4=CC=C(C=C4)Cl
In short: as §1

[4] = compound: C1=CC2=C(C=CC(=C2)/C=C\3/C(=O)NC(=NCC4=CC=CS4)S3)N=C1
In short: as §1

[5] = compound: C1=CC2=NC=CN=C2C=C1/C=C/3\C(=O)NC(=O)S3
In short: as §1

[6] = compound: C1=CC=C(C=C1)C2=NC(=C(N2)C3=CC=NC=C3)C4=CC(=C(C=C4)Cl)O
In short: as §1

[7] = compound: C1=CC=C2C(=C1)C3=NNC4=CC=CC(=C43)C2=O
In short: as §1

[8] = compound: C1CCN(C1)C(=O)NC2=CC=CC(=C2)NC3=NC=C(C(=N3)NCCC4=CN=CN4)Br
In short: as §1

[9] = compound: C1CN(CCC1(CC2=CC=C(C=C2)Cl)N)C3=NC=NC4=C3C=CN4
In short: as §1

[10] = compound: C1COCCN1CCN2C3=CC=CC=C3N=C2NC(=O)C4=CC(=CC=C4)[N+](=O)[O-] [IRAK-1-4 Inhibitor I]
In short: as §1

[11] = compound: C=CC(=O)N1CCC[C@@H](n2nc(-c3ccc(Oc4ccccc4)cc3)c3c(N)ncnc32)C1 [ibrutinib]
In short: as §1

[12] = compound: CC(=O)c1cnc2ccc(-c3cc(Cl)c(O)c(Cl)c3)nc2c1N[C@H]1CC[C@H](CN(C)C)CC1
In short: as §1

[13] = compound: CC(C)(C)Cn1c(N)nc2ccc(-c3[nH]c(C(C)(C)C)nc3-c3ccc(F)cc3)nc21 [ralimetinib]
In short: as §1

[14] = compound: CC(C)(O)CC(=O)NCCn1ccc2ncnc(Nc3ccc(Oc4cccc(C(F)(F)F)c4)c(Cl)c3)c21
In short: as §1

[15] = compound: CC(C)C1=C2N=C(C=C(N2N=C1)NCC3=CC=CC=C3)NCCCCCCN
In short: as §1

[16] = compound: CC1=C(C(CC(=O)N1)C2=CC=C(C=C2)C(F)(F)F)C(=O)NC3=C(C=C4C(=C3)C=NN4)F
In short: as §1

[17] = compound: CC1=C(C2=C(C=C1)C(=O)C3=CC=CC=C3N2CCCN)C
In short: as §1

[18] = compound: CC1=C(C=C(C=C1)NC(=O)C2=CC(=CC=C2)C(C)(C)C#N)NC3=CC4=C(C=C3)N=CN(C4=O)C
In short: as §1

[19] = compound: CC1=C(C=C(C=C1)NC(=O)C2=CC(=CC=C2)N(C)C)NC(=O)C3=CC=C(C=C3)O
In short: as §1

[20] = compound: CC1=CC=C(C=C1)SC2=C3C=C(SC3=CN=C2)C(=O)N
In short: as §1

Measured: log2 fold change

CWC27 (UniProt Q6UX04)
inactive: [1] -0.001 | [2] 0.001 | [3] 0.001 | [4] 0.019 | [5] -0.005 | [6] -0.006 | [7] -0.015 | [8] -0.015 | [9] 0.013 | [10] 0.017 | [11] 0.035 | [12] -0.031 | [13] 0.011 | [14] -0.017 | [15] 0.016 | [16] -0.035 | [17] 0.014 | [18] -0.005 | [19] -0.02 | [20] -0.002

CTR9 (UniProt Q6PD62)
inactive: [1] 0.019 | [2] 0.036 | [3] 0.036 | [4] -0.007 | [5] -0.011 | [6] -0.018 | [7] -0.02 | [8] -0.006 | [9] 0.004 | [10] 0.001 | [11] 0.023 | [12] 0.003 | [13] 0.016 | [14] -0.003 | [15] -0.001 | [16] -0.005 | [17] -0.005 | [18] -0.008 | [19] 0.013 | [20] -0.014

CXorf38 (UniProt Q8TB03)
inactive: [1] 0.068 | [2] 0.067 | [3] -0.003 | [4] 0.01 | [5] 0.042 | [6] 0.013 | [7] 0.012 | [8] -0.058 | [9] -0.031 | [10] 0.026 | [11] 0.054 | [12] 0.015 | [13] -0.008 | [14] -0.007 | [15] 0.062 | [16] -0.095 | [17] 0.016 | [18] -0.002 | [19] -0.015 | [20] 0.025

CTBP1 (UniProt Q13363)
inactive: [1] 0.004 | [2] -0.002 | [3] 0.015 | [4] 0.02 | [5] 0.005 | [6] -0.025 | [7] -0.007 | [8] 0.001 | [9] -0.015 | [10] -0.01 | [11] 0.002 | [12] -0.021 | [13] 0.024 | [14] -0.017 | [15] 0.041 | [16] -0.015 | [17] 0.007 | [18] 0.012 | [19] 0.008 | [20] 0.003

CSTB (UniProt P04080)
inactive: [1] -0.024 | [2] 0.054 | [3] -0.016 | [4] 0.018 | [5] 0.004 | [6] -0.028 | [7] 0.031 | [8] -0.015 | [9] 0.031 | [10] 0.082 | [11] 0.017 | [12] -0.047 | [13] 0.03 | [14] -0.065 | [15] 0.019 | [16] -0.059 | [17] 0.037 | [18] 0.121 | [19] 0.009 | [20] 0.021

CREBBP (UniProt Q92793)
inactive: [1] -0.023 | [2] -0.045 | [3] -0.058 | [4] -0.014 | [5] -0.017 | [6] 0.005 | [7] -0.004 | [8] -0.013 | [9] 0.082 | [10] 0 | [11] 0.017 | [12] 0.07 | [13] -0.014 | [14] 0.011 | [15] -0.019 | [16] -0.008 | [17] 0.018 | [18] 0.036 | [19] -0.002 | [20] 0.046

CWF19L1 (UniProt Q69YN2)
inactive: [1] -0.025 | [2] -0.04 | [3] 0.015 | [4] 0.002 | [5] 0.006 | [6] -0.017 | [7] -0.015 | [8] -0.018 | [9] 0.05 | [10] -0.022 | [11] 0 | [12] -0.026 | [13] 0 | [14] 0.014 | [15] 0.019 | [16] -0.021 | [17] 0.037 | [18] -0.031 | [19] -0.001 | [20] -0.005

CYB561A3 isoform 2 (UniProt Q8NBI2)
inactive: [1] 0.117 | [2] 0.053 | [3] 0.117 | [4] -0.014 | [5] 0.03 | [6] -0.165 | [7] -0.153 | [8] 0.062 | [9] 0.055 | [10] -0.001 | [11] -0.002 | [12] -0.033 | [13] 0.055 | [14] 0.166 | [15] -0.011 | [16] 0.051 | [17] -0.032 | [18] 0.14 | [19] 0.028 | [20] -0.006

Source: the supplement of paper PMC10849652
